In publication doi:10.1101/2022.05.07.491022:
Results are given in words; binding and its absence hold for the method and conditions named. In cells and extracts the contact can be indirect. Some results given as binding are weak or reduced against the parent protein; the word gives no strength.

Chains of the proteins cited; added tags and fusions are not shown.
UniProt P30281, whole entry: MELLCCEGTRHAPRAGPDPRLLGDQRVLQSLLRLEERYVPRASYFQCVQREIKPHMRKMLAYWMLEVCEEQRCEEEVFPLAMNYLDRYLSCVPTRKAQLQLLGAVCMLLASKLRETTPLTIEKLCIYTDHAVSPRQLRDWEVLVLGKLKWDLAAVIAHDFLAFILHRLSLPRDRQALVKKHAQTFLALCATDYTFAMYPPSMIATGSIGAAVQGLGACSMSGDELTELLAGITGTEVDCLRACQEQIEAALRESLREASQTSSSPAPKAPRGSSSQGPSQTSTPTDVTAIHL

Assays:
Assay in all cases: co-IP
[1] = target: Strep-tagged SARS-CoV-2 Membrane (M) protein (SARS-CoV-2) (UniProt P0DTC5)
[2] = target: Strep-tagged SARS-CoV-2 Envelope (E) protein (SARS-CoV-2) (UniProt P0DTC4)
HA-tagged cyclin D3 = HA-tagged cyclin D3 (UniProt P30281)

Substance | binding [1] | binding [2] | binding (HA-tagged cyclin D3)
HA-tagged cyclin D3 (from UniProt P30281 1-292) | binds | binds | –
Strep-tagged SARS-CoV-2 Envelope (E) protein (from UniProt P0DTC4 1-75) | – | – | binds
Strep-tagged SARS-CoV-2 Membrane (M) protein (from UniProt P0DTC5 1-222) | – | – | binds
Strep-tagged SARS-CoV-2 nsp9 protein (from UniProt P0DTD1 4141-4253) | – | – | no binding
